Source: publication doi:10.1101/2020.06.09.141986
Like-named read-outs stand apart in the source and are kept apart here. No constants are given. Whether binding was seen depends on the method and setting. For some assays here: Binding seen in cells or lysates may run through a third protein. Some entries that bind do so weakly or less than the wild type. For some assays here: Sequences can lack the tags named with a protein.

Protein sequences, listed by entry. Tags and fused reporters are not part of them. Lines headed by an entry give the natural chain unless they say otherwise; changes in a name come on top.
UniProt P31749: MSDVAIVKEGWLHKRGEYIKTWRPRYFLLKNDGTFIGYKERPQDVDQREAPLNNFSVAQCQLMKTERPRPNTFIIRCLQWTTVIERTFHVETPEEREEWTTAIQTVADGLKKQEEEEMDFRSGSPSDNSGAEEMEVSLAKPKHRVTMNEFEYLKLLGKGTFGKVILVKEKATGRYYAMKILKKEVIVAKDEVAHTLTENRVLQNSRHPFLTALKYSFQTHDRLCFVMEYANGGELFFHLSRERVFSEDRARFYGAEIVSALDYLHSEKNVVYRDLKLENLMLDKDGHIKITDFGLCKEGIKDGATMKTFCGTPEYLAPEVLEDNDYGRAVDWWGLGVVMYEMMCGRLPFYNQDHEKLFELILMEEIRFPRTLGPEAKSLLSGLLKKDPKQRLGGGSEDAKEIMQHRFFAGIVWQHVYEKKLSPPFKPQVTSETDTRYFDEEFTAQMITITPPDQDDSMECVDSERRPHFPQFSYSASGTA
UniProt P31750: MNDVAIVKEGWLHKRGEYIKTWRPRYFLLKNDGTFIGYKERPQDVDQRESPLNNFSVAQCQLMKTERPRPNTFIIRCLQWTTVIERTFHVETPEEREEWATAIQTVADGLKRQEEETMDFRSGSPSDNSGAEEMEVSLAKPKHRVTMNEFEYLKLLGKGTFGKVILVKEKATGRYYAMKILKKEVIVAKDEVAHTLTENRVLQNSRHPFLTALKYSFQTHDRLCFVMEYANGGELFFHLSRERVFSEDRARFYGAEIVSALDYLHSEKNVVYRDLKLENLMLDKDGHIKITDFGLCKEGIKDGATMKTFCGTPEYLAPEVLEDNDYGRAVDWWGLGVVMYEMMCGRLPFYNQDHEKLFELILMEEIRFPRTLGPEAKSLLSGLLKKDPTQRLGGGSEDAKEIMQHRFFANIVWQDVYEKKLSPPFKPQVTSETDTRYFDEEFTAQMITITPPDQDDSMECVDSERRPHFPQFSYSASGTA
UniProt P31751: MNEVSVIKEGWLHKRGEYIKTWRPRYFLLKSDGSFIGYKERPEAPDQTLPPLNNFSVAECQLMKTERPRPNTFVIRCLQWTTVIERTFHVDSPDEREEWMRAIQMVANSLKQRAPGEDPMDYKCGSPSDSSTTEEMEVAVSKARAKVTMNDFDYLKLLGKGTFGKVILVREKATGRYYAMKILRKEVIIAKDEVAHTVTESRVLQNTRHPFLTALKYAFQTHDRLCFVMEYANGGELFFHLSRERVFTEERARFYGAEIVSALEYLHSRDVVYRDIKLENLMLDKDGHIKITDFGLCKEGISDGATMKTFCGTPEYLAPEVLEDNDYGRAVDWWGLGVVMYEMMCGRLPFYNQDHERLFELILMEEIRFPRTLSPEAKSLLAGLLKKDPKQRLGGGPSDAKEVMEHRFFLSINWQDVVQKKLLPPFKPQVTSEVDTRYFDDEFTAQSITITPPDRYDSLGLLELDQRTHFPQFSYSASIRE

T1: Flag-Aldob (UniProt P05062)
T1 sequence: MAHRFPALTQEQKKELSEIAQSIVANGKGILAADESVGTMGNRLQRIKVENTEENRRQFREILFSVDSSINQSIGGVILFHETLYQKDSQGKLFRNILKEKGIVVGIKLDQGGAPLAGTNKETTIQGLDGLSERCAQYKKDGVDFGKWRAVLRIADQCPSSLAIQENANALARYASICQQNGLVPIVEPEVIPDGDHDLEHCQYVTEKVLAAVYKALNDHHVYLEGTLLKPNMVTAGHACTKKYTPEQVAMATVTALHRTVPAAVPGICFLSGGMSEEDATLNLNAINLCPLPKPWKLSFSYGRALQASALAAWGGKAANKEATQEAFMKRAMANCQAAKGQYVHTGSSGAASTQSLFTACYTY

T2: exogenous Aldob in LM3-Aldob cells (UniProt P05062)
T2 sequence: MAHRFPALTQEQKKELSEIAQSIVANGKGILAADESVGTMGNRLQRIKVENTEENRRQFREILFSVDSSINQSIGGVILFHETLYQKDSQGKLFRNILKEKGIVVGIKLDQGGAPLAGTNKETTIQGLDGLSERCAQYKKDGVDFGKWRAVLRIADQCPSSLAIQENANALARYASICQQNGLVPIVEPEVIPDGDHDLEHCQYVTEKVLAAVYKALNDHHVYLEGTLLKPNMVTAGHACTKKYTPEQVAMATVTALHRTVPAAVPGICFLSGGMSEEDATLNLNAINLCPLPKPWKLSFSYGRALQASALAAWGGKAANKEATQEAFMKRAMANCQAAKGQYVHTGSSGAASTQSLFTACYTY


Columns and labels:
Flag-Aldob [1] = target: T1, Flag-Aldob; experiment: co-IP
[2] = target: T2, exogenous Aldob in LM3-Aldob cells; experiment: co-IP
Flag-Aldob [3] = target: T1, Flag-Aldob; experiment: co-IP; remark: listed apart in the source
Myc-Akt1 = Myc-Akt1 (UniProt P31749); experiment: co-IP
[4] = target: Akt1, endogenous, human liver tissue (human (endogenous in liver tissue)) (UniProt P31749); experiment: co-IP
GST-Akt1 = GST-Akt1 (UniProt P31749); experiment: pull-down
[5] = target: Akt1, endogenous, mouse liver (mouse (endogenous in liver tissue)) (UniProt P31750); experiment: co-IP

Molecule	binding (Flag-Aldob [1])	binding (Myc-Akt1)	also measured
Akt1-T308A (from UniProt P31749 1-480)	binds	–	–
Akt2 (ectopically expressed) (from UniProt P31751 1-481)	binds	–	–
Akt1-S473A (from UniProt P31749 1-480)	binds	–	–
Akt1, endogenous, HCC cell lines (from UniProt P31749 1-480)	binds	–	binding [2]: binds
phosphoinositide-dependent kinase 1 (PDK1) (protein, UniProt O15530 1-556) MARTTSQLYDAVPIQSSVVLCSCPSPSMVRTQTESSTPPGIPGGSRQGPAMDGTAAEPRPGAGSLQHAQPPPQPRKKRPEDFKFGKILGEGSFSTVVLARELATSREYAIKILEKRHIIKENKVPYVTRERDVMSRLDHPFFVKLYFTFQDDEKLYFGLSYAKNGELLKYIRKIGSFDETCTRFYTAEIVSALEYLHGKGIIHRDLKPENILLNEDMHIQITDFGTAKVLSPESKQARANSFVGTAQYVSPELLTEKSACKSSDLWALGCIIYQLVAGLPPFRAGNEYLIFQKIIKLEYDFPEKFFPKARDLVEKLLVLDATKRLGCEEMEGYGPLKAHPFFESVTWENLHQQTPPKLTAYLPAMSEDDEDCYGNYDNLLSQFGCMQVSSSSSSHSLSASDTGLPQRSGSNIEQYIHDLDSNSFELDLQFSEDEKRLLLEKQAGGNPWHQFVENNLILKMGPVDKRKGLFARRRQLLLTEGPHLYYVDPVNKVLKGEIPWSQELRPEAKNFKTFFVHTPNRTYYLMDPSGNAHKWCRKIQEVWRQRYQSHPDAAVQ	–	–	binding (Flag-Aldob [3]): no binding
His-Aldob R46A (protein, UniProt P05062 1-364) MAHRFPALTQEQKKELSEIAQSIVANGKGILAADESVGTMGNRLQAIKVENTEENRRQFREILFSVDSSINQSIGGVILFHETLYQKDSQGKLFRNILKEKGIVVGIKLDQGGAPLAGTNKETTIQGLDGLSERCAQYKKDGVDFGKWRAVLRIADQCPSSLAIQENANALARYASICQQNGLVPIVEPEVIPDGDHDLEHCQYVTEKVLAAVYKALNDHHVYLEGTLLKPNMVTAGHACTKKYTPEQVAMATVTALHRTVPAAVPGICFLSGGMSEEDATLNLNAINLCPLPKPWKLSFSYGRALQASALAAWGGKAANKEATQEAFMKRAMANCQAAKGQYVHTGSSGAASTQSLFTACYTY	–	binds	–
His-Aldob K147A (protein, UniProt P05062 1-364) MAHRFPALTQEQKKELSEIAQSIVANGKGILAADESVGTMGNRLQRIKVENTEENRRQFREILFSVDSSINQSIGGVILFHETLYQKDSQGKLFRNILKEKGIVVGIKLDQGGAPLAGTNKETTIQGLDGLSERCAQYKKDGVDFGAWRAVLRIADQCPSSLAIQENANALARYASICQQNGLVPIVEPEVIPDGDHDLEHCQYVTEKVLAAVYKALNDHHVYLEGTLLKPNMVTAGHACTKKYTPEQVAMATVTALHRTVPAAVPGICFLSGGMSEEDATLNLNAINLCPLPKPWKLSFSYGRALQASALAAWGGKAANKEATQEAFMKRAMANCQAAKGQYVHTGSSGAASTQSLFTACYTY	–	binds	–
Aldolase B (Aldob), endogenous, human liver tissue (protein, UniProt P05062 1-364) MAHRFPALTQEQKKELSEIAQSIVANGKGILAADESVGTMGNRLQRIKVENTEENRRQFREILFSVDSSINQSIGGVILFHETLYQKDSQGKLFRNILKEKGIVVGIKLDQGGAPLAGTNKETTIQGLDGLSERCAQYKKDGVDFGKWRAVLRIADQCPSSLAIQENANALARYASICQQNGLVPIVEPEVIPDGDHDLEHCQYVTEKVLAAVYKALNDHHVYLEGTLLKPNMVTAGHACTKKYTPEQVAMATVTALHRTVPAAVPGICFLSGGMSEEDATLNLNAINLCPLPKPWKLSFSYGRALQASALAAWGGKAANKEATQEAFMKRAMANCQAAKGQYVHTGSSGAASTQSLFTACYTY	–	–	binding [4]: binds
His-Aldob (protein, UniProt P05062 1-364) MAHRFPALTQEQKKELSEIAQSIVANGKGILAADESVGTMGNRLQRIKVENTEENRRQFREILFSVDSSINQSIGGVILFHETLYQKDSQGKLFRNILKEKGIVVGIKLDQGGAPLAGTNKETTIQGLDGLSERCAQYKKDGVDFGKWRAVLRIADQCPSSLAIQENANALARYASICQQNGLVPIVEPEVIPDGDHDLEHCQYVTEKVLAAVYKALNDHHVYLEGTLLKPNMVTAGHACTKKYTPEQVAMATVTALHRTVPAAVPGICFLSGGMSEEDATLNLNAINLCPLPKPWKLSFSYGRALQASALAAWGGKAANKEATQEAFMKRAMANCQAAKGQYVHTGSSGAASTQSLFTACYTY	–	binds	binding (GST-Akt1): binds
Aldolase B (Aldob), endogenous, mouse liver (protein, UniProt Q91Y97 1-364) MAHRFPALTPEQKKELSEIAQRIVANGKGILAADESVGTMGNRLQRIKVENTEENRRQFRELLFSVDNSISQSIGGVILFHETLYQKDSQGNLFRNVLKEKGIVVGIKLDQGGAPLAGTNKETTIQGLDGLSERCAQYKKDGVDFGKWRAVLRIADQCPSSLAIQENANALARYASICQQNGLVPIVEPEVLPDGDHDLEHCQYVSEKVLAAVYKALNDHHVYLEGTLLKPNMVTAGHACTKKYTPEQVAMATVTALHRTVPAAVPGICFLSGGMSEEDATLNLNAINRCPLPRPWKLSFSYGRALQASALAAWGGKAANKKATQEAFMKRAMANCQAAQGQYVHTGSSGAAATQSLFTASYTY	–	–	binding [5]: binds

The next lines start with results.

binding (Flag-Aldob [1])	binding (Myc-Akt1)	Molecule	also measured
binds	–	Myc-Akt1 (from UniProt P31749 1-480)	–
–	no binding	His-Aldob a.a. 1-155 (domain or fragment, UniProt P05062 1-155) MAHRFPALTQEQKKELSEIAQSIVANGKGILAADESVGTMGNRLQRIKVENTEENRRQFREILFSVDSSINQSIGGVILFHETLYQKDSQGKLFRNILKEKGIVVGIKLDQGGAPLAGTNKETTIQGLDGLSERCAQYKKDGVDFGKWRAVLRIA	–
–	binds weakly	His-Aldob R304A (protein, UniProt P05062 1-364) MAHRFPALTQEQKKELSEIAQSIVANGKGILAADESVGTMGNRLQRIKVENTEENRRQFREILFSVDSSINQSIGGVILFHETLYQKDSQGKLFRNILKEKGIVVGIKLDQGGAPLAGTNKETTIQGLDGLSERCAQYKKDGVDFGKWRAVLRIADQCPSSLAIQENANALARYASICQQNGLVPIVEPEVIPDGDHDLEHCQYVTEKVLAAVYKALNDHHVYLEGTLLKPNMVTAGHACTKKYTPEQVAMATVTALHRTVPAAVPGICFLSGGMSEEDATLNLNAINLCPLPKPWKLSFSYGAALQASALAAWGGKAANKEATQEAFMKRAMANCQAAKGQYVHTGSSGAASTQSLFTACYTY	–
–	binds	His-Aldob R149A (protein, UniProt P05062 1-364) MAHRFPALTQEQKKELSEIAQSIVANGKGILAADESVGTMGNRLQRIKVENTEENRRQFREILFSVDSSINQSIGGVILFHETLYQKDSQGKLFRNILKEKGIVVGIKLDQGGAPLAGTNKETTIQGLDGLSERCAQYKKDGVDFGKWAAVLRIADQCPSSLAIQENANALARYASICQQNGLVPIVEPEVIPDGDHDLEHCQYVTEKVLAAVYKALNDHHVYLEGTLLKPNMVTAGHACTKKYTPEQVAMATVTALHRTVPAAVPGICFLSGGMSEEDATLNLNAINLCPLPKPWKLSFSYGRALQASALAAWGGKAANKEATQEAFMKRAMANCQAAKGQYVHTGSSGAASTQSLFTACYTY	–
–	no binding	His-Aldob a.a. 1-240 (domain or fragment, UniProt P05062 1-240) MAHRFPALTQEQKKELSEIAQSIVANGKGILAADESVGTMGNRLQRIKVENTEENRRQFREILFSVDSSINQSIGGVILFHETLYQKDSQGKLFRNILKEKGIVVGIKLDQGGAPLAGTNKETTIQGLDGLSERCAQYKKDGVDFGKWRAVLRIADQCPSSLAIQENANALARYASICQQNGLVPIVEPEVIPDGDHDLEHCQYVTEKVLAAVYKALNDHHVYLEGTLLKPNMVTAGHAC	–
